From the supplement of paper PMC12819154, “High-throughput peptide-centric local stability assay extends protein–ligand identification to membrane proteins, tissues and bacteria” (Nature Structural & Molecular Biology, 2025) come the findings set out here.

By UniProt entry, the sequences of proteins in these tests, tags left out. Where a name states a change or a piece, a line headed by the entry shows the natural chain unless it says otherwise.
UniProt E9PVD3: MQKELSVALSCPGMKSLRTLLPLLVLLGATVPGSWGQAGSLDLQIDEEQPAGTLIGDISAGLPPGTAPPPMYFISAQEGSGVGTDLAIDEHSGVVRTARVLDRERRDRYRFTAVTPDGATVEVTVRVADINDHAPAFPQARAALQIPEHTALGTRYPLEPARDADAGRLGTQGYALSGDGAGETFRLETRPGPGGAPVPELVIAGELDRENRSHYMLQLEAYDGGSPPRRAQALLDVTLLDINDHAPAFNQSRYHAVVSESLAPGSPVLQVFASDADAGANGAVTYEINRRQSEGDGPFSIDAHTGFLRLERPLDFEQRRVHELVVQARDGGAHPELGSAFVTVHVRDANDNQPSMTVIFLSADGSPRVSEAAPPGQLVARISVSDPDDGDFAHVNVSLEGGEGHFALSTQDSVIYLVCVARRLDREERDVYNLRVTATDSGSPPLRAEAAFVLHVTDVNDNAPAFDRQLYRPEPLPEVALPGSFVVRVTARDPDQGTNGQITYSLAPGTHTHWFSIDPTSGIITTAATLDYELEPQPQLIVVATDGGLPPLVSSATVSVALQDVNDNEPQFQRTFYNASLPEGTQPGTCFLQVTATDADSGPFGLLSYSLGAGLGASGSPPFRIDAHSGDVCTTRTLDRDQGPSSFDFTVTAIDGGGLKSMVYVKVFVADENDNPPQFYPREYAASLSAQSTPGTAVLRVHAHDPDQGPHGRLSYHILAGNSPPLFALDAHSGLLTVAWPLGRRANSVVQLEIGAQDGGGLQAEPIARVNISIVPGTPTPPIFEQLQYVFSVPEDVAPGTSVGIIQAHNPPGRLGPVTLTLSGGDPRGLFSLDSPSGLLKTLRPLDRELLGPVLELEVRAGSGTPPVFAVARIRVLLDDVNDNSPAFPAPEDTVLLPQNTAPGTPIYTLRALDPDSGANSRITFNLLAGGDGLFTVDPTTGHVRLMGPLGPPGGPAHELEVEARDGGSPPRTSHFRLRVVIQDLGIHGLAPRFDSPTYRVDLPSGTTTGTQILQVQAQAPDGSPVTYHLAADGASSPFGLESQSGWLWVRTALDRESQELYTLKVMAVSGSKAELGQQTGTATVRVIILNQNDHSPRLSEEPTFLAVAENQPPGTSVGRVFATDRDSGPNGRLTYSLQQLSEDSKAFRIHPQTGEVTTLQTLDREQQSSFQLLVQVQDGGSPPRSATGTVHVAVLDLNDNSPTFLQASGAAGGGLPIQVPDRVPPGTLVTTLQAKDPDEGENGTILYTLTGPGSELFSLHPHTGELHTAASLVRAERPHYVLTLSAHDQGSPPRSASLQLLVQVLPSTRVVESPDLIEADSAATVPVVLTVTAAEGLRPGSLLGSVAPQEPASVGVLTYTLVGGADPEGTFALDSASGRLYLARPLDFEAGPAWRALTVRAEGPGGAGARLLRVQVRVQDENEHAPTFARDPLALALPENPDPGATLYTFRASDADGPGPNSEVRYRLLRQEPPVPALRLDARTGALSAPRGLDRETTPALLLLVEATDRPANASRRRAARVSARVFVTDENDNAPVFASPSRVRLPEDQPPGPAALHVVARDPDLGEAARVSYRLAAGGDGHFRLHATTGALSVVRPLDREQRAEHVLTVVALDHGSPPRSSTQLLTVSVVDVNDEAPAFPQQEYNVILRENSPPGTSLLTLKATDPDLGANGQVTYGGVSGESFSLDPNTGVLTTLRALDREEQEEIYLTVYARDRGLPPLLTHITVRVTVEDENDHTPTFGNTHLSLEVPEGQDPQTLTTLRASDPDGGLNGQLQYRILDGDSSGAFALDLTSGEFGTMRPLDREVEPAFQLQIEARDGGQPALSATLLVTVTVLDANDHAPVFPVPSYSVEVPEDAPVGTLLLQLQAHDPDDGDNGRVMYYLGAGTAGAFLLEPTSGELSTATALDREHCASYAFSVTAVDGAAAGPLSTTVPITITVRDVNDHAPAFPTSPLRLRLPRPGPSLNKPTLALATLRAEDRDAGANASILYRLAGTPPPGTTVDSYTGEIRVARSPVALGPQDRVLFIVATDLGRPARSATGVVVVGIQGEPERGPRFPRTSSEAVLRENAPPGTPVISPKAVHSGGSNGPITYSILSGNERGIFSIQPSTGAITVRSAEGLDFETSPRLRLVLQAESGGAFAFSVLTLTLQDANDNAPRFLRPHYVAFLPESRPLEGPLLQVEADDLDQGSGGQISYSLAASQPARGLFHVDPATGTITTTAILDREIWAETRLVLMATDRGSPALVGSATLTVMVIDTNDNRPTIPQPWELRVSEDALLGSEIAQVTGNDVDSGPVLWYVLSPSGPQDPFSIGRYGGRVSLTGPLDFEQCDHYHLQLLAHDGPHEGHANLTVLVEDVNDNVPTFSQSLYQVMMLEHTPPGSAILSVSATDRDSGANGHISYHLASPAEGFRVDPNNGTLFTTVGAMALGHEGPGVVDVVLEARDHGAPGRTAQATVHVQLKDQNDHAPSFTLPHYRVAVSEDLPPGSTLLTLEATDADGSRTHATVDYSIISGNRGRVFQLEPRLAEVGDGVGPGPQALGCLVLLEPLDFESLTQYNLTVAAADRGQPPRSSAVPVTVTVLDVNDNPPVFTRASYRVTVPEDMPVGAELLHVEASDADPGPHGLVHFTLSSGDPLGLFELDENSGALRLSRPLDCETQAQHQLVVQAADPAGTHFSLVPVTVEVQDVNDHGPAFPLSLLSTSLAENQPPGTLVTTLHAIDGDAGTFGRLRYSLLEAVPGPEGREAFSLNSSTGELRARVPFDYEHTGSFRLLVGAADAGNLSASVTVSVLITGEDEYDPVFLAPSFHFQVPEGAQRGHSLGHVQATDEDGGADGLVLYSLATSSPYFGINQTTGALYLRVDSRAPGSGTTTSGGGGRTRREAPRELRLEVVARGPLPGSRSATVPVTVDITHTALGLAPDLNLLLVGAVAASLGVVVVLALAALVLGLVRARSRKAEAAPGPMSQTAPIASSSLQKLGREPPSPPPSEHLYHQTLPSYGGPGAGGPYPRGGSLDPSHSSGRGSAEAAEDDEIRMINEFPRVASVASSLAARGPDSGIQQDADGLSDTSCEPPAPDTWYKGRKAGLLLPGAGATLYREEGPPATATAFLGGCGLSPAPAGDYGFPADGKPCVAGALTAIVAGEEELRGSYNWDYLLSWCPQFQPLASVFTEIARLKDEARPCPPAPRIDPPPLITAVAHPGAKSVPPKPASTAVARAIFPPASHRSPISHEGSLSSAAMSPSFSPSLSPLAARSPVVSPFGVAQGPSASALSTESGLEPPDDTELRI
UniProt O35218: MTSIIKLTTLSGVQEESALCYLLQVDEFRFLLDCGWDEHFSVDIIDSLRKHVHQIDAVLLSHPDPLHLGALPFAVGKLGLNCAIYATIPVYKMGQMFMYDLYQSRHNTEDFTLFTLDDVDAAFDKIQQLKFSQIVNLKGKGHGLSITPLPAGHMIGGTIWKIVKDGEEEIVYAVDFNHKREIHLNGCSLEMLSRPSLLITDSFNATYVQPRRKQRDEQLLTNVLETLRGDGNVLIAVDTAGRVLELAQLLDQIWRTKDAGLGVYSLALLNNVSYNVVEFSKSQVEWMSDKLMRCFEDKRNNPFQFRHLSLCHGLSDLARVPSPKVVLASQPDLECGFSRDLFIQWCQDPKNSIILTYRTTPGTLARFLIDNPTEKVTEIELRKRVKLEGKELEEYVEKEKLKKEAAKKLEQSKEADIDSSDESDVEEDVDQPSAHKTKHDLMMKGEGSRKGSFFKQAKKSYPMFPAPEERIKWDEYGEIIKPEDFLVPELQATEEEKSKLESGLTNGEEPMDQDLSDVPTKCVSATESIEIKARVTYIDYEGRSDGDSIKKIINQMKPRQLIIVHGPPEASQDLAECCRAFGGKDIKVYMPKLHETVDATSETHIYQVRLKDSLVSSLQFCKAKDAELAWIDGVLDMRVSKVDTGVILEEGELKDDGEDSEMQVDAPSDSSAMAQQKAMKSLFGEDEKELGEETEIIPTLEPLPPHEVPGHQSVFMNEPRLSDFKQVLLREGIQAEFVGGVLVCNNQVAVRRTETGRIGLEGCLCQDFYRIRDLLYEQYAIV
UniProt E9Q9R9: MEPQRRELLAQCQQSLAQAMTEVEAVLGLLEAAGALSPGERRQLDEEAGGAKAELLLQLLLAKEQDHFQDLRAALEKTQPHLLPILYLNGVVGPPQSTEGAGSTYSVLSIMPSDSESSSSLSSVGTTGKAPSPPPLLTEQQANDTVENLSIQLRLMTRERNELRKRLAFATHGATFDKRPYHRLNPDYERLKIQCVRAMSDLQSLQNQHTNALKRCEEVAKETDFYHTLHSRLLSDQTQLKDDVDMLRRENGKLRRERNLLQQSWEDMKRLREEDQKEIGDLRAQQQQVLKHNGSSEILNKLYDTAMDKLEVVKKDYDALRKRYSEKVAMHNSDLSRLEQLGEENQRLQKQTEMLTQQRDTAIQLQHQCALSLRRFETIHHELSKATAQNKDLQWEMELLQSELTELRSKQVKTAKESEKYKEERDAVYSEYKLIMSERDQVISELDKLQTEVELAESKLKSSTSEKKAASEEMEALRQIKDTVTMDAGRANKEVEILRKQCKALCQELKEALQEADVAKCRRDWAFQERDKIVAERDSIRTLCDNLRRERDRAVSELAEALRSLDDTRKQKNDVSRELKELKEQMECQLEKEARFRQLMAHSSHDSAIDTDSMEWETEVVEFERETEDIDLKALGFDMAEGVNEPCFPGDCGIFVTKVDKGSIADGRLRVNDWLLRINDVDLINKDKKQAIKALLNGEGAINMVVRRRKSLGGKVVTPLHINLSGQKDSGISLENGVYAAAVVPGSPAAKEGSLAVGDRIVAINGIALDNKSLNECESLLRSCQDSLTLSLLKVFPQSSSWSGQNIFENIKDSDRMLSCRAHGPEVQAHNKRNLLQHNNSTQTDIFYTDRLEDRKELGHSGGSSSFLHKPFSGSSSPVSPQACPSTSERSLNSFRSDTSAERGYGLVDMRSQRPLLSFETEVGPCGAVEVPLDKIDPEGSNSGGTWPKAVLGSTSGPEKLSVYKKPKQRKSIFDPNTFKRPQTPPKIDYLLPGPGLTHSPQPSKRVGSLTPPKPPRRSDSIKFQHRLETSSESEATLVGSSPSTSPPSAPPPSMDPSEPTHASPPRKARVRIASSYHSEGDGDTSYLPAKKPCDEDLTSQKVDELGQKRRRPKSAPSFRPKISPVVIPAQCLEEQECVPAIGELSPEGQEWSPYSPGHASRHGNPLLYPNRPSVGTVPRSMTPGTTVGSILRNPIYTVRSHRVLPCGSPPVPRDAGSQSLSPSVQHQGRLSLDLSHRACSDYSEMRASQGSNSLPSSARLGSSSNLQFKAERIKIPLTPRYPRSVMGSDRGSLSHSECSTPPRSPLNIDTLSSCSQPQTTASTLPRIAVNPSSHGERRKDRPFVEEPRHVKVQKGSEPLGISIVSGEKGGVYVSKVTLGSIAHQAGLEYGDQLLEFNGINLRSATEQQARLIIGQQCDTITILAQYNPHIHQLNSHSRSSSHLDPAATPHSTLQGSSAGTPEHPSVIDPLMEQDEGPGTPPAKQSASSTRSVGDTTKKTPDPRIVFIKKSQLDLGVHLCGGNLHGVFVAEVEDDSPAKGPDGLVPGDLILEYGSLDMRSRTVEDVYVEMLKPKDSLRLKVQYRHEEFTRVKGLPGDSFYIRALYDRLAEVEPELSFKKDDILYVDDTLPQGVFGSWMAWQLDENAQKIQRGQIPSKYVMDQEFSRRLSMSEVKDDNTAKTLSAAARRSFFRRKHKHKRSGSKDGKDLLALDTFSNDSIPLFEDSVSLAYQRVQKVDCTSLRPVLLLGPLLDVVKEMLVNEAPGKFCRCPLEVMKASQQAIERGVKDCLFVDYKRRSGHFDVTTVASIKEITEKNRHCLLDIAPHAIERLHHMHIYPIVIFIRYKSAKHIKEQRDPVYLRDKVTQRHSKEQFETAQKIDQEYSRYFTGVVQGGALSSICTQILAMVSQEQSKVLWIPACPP

This is one part of the list. Small differences around the control level are noise.

Compound in the test: CN[C@@H]1C[C@H]2O[C@@](C)([C@@H]1OC)n1c3ccccc3c3c4c(c5c6ccccc6n2c5c31)C(=O)NC4 [staurosporine]
The test is described as follows: log2 fold change of tryptic peptide abundance, ligand vs vehicle (limited proteolysis) (log2 ratio); higher = more trypsin-susceptible (destabilized). Particulars: ligand concentration: 20 uM; sample: mouse liver crude lysate; replicate design: treated separately.
Take “UniProt E9PVD3 (peptide sequence: ENAPPGTPVISPK, peptide start residue: 2072)”: the log2 fold change is 0.349.

On to “UniProt O35218 (peptide sequence: FLIDNPTEK, peptide start residue: 367)”, for which the log2 fold change is -0.403.

Consider “UniProt O08664 (peptide sequence: KVMATIEK, peptide start residue: 20)”, for which the log2 fold change is 0.289.

With “UniProt E9Q9R9 (peptide sequence: IKIPLTPR, peptide start residue: 1274)”, the log2 fold change was 0.0597.
